# Measured values taken from PubChem BioAssay AID2685 (National Center for Advancing Translational Sciences (NCATS), 2010).
# The other results are listed elsewhere or left out. Further columns of the screen follow, without active or inactive calls. The list favours compounds with an active or inconclusive main result. The note in brackets gives the kind of curve behind each potency; many fits are weak.
# Experiment: qHTS Assay for Lipid Storage Modulators in Drosophila S3 Cells;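 as to cell number change: cells counted by Cell Tracker Red CMTPX staining in the red channel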
# Conditions: BODIPY lipid droplet fluorescence, 18-24 h; for cell number change: measured here: cell count max response, cells fed with added oleic acid
# Summary of the method: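 Drosophila S3 cells got compounds at several concentrations plus oleic acid (400 uM solution). Laser-scanning cytometry with 488 nm excitation read lipid droplets at 500-530 nm and cells at 575-640 nm. Percent activity was relative to 20 uM Triacsin C.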
# [1] = measured here: lipid fluorescence (Fed channel) AC50, cells fed with added oleic acid
# [2] = measured here: cell number channel AC50, cells fed with added oleic acid
Structure (SMILES),cell number change,AC50 [1],AC50 [2]
O=C(c1ccc(F)cc1)C1CCN(C(=O)c2ccncc2)CC1,-1.25%,"6.51 µM [rising, single point]",
COc1ccc(NCc2nnc(SCC(=O)Nc3ccccc3OC)o2)cc1,27.8%,"6.51 µM [falling, single point]",
O=C(NCc1ccc2[nH]c3c(c2c1)CCCC3)c1ccc(S(=O)(=O)N2CCOCC2)cc1,,,"0.58 µM [rising, single point]"
CCOc1ccc(OCCC(=O)OCC(=O)Nc2ccc(Cl)cn2)cc1,25%,"0.731 µM [rising, partial curve, poor fit]",
Cc1ccccc1N(CC(=O)NCCc1ccccc1)C(=O)c1csnn1,24.4%,,
C=CCN1C(=O)C(CC(=O)Nc2ccc(C)cc2)SC1=Nc1c(C)n(C)n(-c2ccccc2)c1=O (stereo unspecified),,"6.51 µM [rising, single point]",
Cc1ccc(-n2c(C)c(C)c3c(NCCO)ncnc32)cc1,5.67%,,
Cc1cc(CNC(=O)c2cccc([N+](=O)[O-])c2C)c2ccccc2n1,20.6%,,
CC(C)(NC(=O)c1ccccc1)c1nc2ccccc2s1,-24.3%,"2.31 µM [rising, partial curve, poor fit]",
CCN1C(=O)[C@H]2[C@@H](c3ccc(C)cc3)N3C(=O)N(c4cccc(F)c4)C(=O)[C@@]3(CC)[C@H]2C1=O,8.74%,"5.17 µM [rising, full curve]",
COc1ccc(CN2CCN(CCCc3ccccc3)C(CCO)C2)c(O)c1 (stereo unspecified),12.9%,"29.1 µM [rising, single point]",
Cc1cc(C)n2nc(C(=O)Nc3cccc(S(=O)(=O)N(C)c4ccccc4)c3)nc2n1,,"9.2 µM [falling, partial curve]",
Cc1cc2c(cc1S(=O)(=O)N(C)Cc1ccccc1)OCC(=O)N2,9.51%,,
Cc1ccc2nc(-c3ccncc3)cc(C(=O)Nc3ccc(F)cc3C)c2c1,30.4%,"2.51 µM [rising, partial curve]","2.24 µM [rising, partial curve]"
CC(=O)Nc1ccc(S(=O)(=O)NCCC(=O)OCC(=O)c2ccc(F)c(F)c2)cc1,2.27%,,
CC1CCN(C(=O)CC2C(=O)Nc3c2c(=O)n(C)c(=O)n3Cc2ccccc2)CC1 (stereo unspecified),,"18.4 µM [rising, single point]",
COc1ccc(S(=O)(=O)N2CCC(C(=O)N[C@@H](C)C(=O)NCc3ccccc3OC)CC2)cc1,,"29.1 µM [rising, single point]",
Cc1c(NC(=O)CN2CCN(C(=O)c3ccco3)CC2)c(=O)n(-c2ccccc2)n1C,-16%,"0.103 µM [falling, full curve, poor fit]",
COc1ccc(-n2nc(C(=O)NCC(=O)Nc3ccccn3)c3ccccc3c2=O)cc1Cl,60.6%,,"20.6 µM [rising, partial curve, poor fit]"

# Full records as entered above.
# Cc1ccccc1N(CC(=O)NCCc1ccccc1)C(=O)c1csnn1 as listed: cell number change: 24.4%
# Cc1cc(CNC(=O)c2cccc([N+](=O)[O-])c2C)c2ccccc2n1 as listed: cell number change: 20.6%
# Cc1ccc2nc(-c3ccncc3)cc(C(=O)Nc3ccc(F)cc3C)c2c1 as listed: cell number change: 30.4%; AC50 [1]: 2.51 µM [rising, partial curve]; AC50 [2]: 2.24 µM [rising, partial curve]
# CCN1C(=O)[C@H]2[C@@H](c3ccc(C)cc3)N3C(=O)N(c4cccc(F)c4)C(=O)[C@@]3(CC)[C@H]2C1=O as listed: cell number change: 8.74%; AC50 [1]: 5.17 µM [rising, full curve]

# The list continues:

Structure (SMILES),cell number change,AC50 [1],AC50 [2]
CCN(CC(=O)Nc1ccc(NC(C)=O)cc1)CC(=O)Nc1cc(C)on1,,"29.1 µM [rising, single point]",
CN(C)c1cc(NC(=O)CNC(C)(C)CC(C)(C)C)c2ccccc2n1,-13.3%,"3.26 µM [rising, single point]","0.0058 µM [falling, full curve, poor fit]"
COc1ccc(C(=O)Nc2ccccc2N2CCOCC2)cc1[N+](=O)[O-],19.9%,"9.2 µM [rising, single point]",
CCc1ccccc1NC(=O)CN(C1CCCCC1)S(C)(=O)=O,-25.5%,"11.6 µM [falling, partial curve]",
Cc1cccc(OCC(O)CN2CCN(C3CCCCC3)CC2)c1 (stereo unspecified),-1.53%,"2.31 µM [falling, single point]",
COC(=O)C(Cc1ccccc1)NC(=O)CNC(=O)c1ccc(Br)cc1 (stereo unspecified),38.5%,"29.1 µM [falling, single point]","23.1 µM [rising, single point]"
C/C(=N\NC(=O)c1nn(C)cc1Br)c1ccncc1,4.07%,"6.51 µM [rising, single point]",
COc1ccc(C(=O)Nc2nnc(C)s2)cc1S(=O)(=O)N1CCOCC1,-20%,"14.6 µM [falling, single point]",
CC(C)Nc1nc(-c2ccncc2)nc(-c2ccc(Cl)cc2)c1C#N,25.8%,"2.31 µM [rising, partial curve]","2.06 µM [rising, partial curve]"
Cc1cccc(C(=O)Nc2ccc(C(=O)/C=C/c3cccnc3)cc2)c1,-20.9%,"1.64 µM [falling, partial curve]",
COc1ccc([C@H]2CC(=O)C=C(c3ccc(Cl)cc3C)C2)cc1,-14%,"0.517 µM [falling, partial curve, poor fit]",
CCOc1ccc(S(=O)(=O)N2CCN(c3ccccc3F)CC2)c2cccnc12,21.1%,"8.2 µM [rising, partial curve]",
Cc1cc(C)n(CC(=O)Nc2ccccc2)n1,-10.3%,"6.51 µM [rising, single point]",
O=C(Cn1cnc2ccccc2c1=O)Nc1ccc2c(c1)OCO2,28.6%,"1.3 µM [rising, full curve]","1.16 µM [rising, full curve, poor fit]"
COc1ccc(C2CC(=O)C(C3NCCc4ccccc43)=C(O)C2n2cncn2)cc1 (stereo unspecified),24.4%,"29.1 µM [falling, single point]",
CC1CCCN(c2nc(-c3cccnc3)nc3scc(-c4ccccc4)c23)C1 (stereo unspecified),-41.7%,,"29.1 µM [falling, single point]"
COc1ccc(C(=O)N/C(=C\c2ccccc2)C(=O)N2CCOCC2)cc1,,"0.461 µM [rising, single point]","0.461 µM [rising, single point]"
CC(=O)Nc1ccc(N2C(=O)c3cccc4c(O)ccc(c34)C2=O)cc1,-101%,"2.06 µM [falling, partial curve]","5.17 µM [falling, full curve]"
CC(C)(C)c1ccc(C(=O)NC(=S)NCc2ccco2)cc1,136%,"23.1 µM [rising, partial curve]","14.6 µM [rising, partial curve]"
Cc1ccc(SC2=C(Sc3ccc(C)cc3)C(=O)c3ccccc3C2=O)cc1,-51.2%,"13 µM [falling, partial curve]","6.51 µM [falling, partial curve]"

Structure (SMILES),cell number change,AC50 [1],AC50 [2]
O=C(CN(C1CC1)S(=O)(=O)c1ccc(S(=O)(=O)NC2CCCCC2)cc1)Nc1ccccc1,-37.8%,"20.6 µM [falling, partial curve]","16.4 µM [falling, partial curve]"
COc1ccccc1N1CCN(C(=O)c2ccc3c(c2)CCN3S(=O)(=O)c2ccccc2)CC1,4.25%,"0.58 µM [rising, single point]",
COc1ccccc1NC(=O)C1CCCN1C(=O)NCc1ccccc1 (stereo unspecified),-2.79%,"2.59 µM [falling, full curve, poor fit]",
O=C(Nc1ccccc1)OCCNC(=O)c1cccc(Cl)c1,,"6.51 µM [falling, single point]",
Cc1noc(C)c1S(=O)(=O)N1CCC(C(=O)NCCN2CCC(C)CC2)CC1,-30.4%,"23.1 µM [falling, single point]","29.1 µM [falling, single point]"
Cc1noc(C(=O)Nc2cc(Cl)ccc2O)c1Cl,-8.33%,,
O=C(Nc1ccc(F)cc1)Nc1csc2ccccc12,-51%,"29.1 µM [falling, single point]","23.1 µM [falling, single point]"
Cc1ccc(CN2C(=O)CCC2C(=O)NC2CC2)cc1 (stereo unspecified),37.4%,,"10.3 µM [rising, single point]"
COc1ccc(CC(=O)OCC(=O)Nc2ccc(Br)cc2)cc1,,,"0.0291 µM [falling, full curve, poor fit]"
COC(=O)CSc1nc2cc3c(cc2cc1C)OCCO3,-6.53%,,
CCc1ccc(N2CC(C(=O)OCc3nc4ccsc4c(=O)[nH]3)CC2=O)cc1 (stereo unspecified),-60.3%,"29.1 µM [falling, single point]","29.1 µM [falling, single point]"
COc1ccc(C(CNC(=O)c2cc(C)oc2C)N2CCOCC2)cc1 (stereo unspecified),-6.09%,,
COc1ccc(NC(=O)COc2ccccc2Cl)cc1S(=O)(=O)N1CCCCC1,-100%,,"1.3 µM [falling, partial curve]"
O=[N+]([O-])c1cncc([N+](=O)[O-])c1Nc1ccccc1Cl,27.4%,"23.1 µM [rising, single point]","4.11 µM [rising, single point]"
Nc1nc(CSc2nc3ccccc3s2)nc(Nc2ccccc2)n1,-32%,"29.1 µM [falling, single point]","18.4 µM [falling, single point]"
Cc1noc(C)c1COC(=O)c1ccc(-c2nc3ccccc3s2)s1,-22.9%,,
CCOC(=O)C1CCN(c2c(NCCC(C)C)c(=O)c2=O)CC1,,"6.51 µM [falling, single point]",
CN(Cc1nc(-c2cccnc2)no1)S(=O)(=O)c1ccc(Br)cc1,,"0.58 µM [rising, single point]",
CSc1nc2ccc(S(=O)(=O)N3CCc4ccccc43)cc2s1,-24.6%,,
